No constants are given. Whether binding was seen depends on the method and setting. In cells and extracts the contact can be indirect. Some results given as binding are weak or reduced against the parent protein; the word gives no strength.
Molecular target: LIN9 (mouse (endogenous in E14 ESCs)) (UniProt Q8C735)
Test: co-IP; nuclear extracts of mouse ESCs immunoprecipitated with LIN9 antibody (ab62329) overnight at 4°C, Protein-G Dynabeads, washed 5 times with TNN (120 mM NaCl, 0.5% NP40); nonspecific IgG as control; immunoblotting

Chains of the proteins cited; added tags and fusions are not shown.
UniProt Q8C735: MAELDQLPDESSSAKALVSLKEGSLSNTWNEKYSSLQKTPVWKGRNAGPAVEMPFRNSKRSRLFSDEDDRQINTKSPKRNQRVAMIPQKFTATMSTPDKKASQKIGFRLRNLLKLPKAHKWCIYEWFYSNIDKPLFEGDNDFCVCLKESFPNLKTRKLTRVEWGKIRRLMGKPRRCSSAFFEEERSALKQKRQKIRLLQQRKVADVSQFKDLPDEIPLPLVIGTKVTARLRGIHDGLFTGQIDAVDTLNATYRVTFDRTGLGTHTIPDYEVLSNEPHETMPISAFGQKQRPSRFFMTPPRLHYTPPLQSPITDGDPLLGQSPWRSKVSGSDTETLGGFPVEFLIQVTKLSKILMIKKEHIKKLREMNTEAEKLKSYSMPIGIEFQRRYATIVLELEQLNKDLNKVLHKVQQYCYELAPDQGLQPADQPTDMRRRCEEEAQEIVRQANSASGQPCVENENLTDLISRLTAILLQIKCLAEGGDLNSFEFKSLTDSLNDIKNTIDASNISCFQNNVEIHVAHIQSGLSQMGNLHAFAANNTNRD
UniProt P48972: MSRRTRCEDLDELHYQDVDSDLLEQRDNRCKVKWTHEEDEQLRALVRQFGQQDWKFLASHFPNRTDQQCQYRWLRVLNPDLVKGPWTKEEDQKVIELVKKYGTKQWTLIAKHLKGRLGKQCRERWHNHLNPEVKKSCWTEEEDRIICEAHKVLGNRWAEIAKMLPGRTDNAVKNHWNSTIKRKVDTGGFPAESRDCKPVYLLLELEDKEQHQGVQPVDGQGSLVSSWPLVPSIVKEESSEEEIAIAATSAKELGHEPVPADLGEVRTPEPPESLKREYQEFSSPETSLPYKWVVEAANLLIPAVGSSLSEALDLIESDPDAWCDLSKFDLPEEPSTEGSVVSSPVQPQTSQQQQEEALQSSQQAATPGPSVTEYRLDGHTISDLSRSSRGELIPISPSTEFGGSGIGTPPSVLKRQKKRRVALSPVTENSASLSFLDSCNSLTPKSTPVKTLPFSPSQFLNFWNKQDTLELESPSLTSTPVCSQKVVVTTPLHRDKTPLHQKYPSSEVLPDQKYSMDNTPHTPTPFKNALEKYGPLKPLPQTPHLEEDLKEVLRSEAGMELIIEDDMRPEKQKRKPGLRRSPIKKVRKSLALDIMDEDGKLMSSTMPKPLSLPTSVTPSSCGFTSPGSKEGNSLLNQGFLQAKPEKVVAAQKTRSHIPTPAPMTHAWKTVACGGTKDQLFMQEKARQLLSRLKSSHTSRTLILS

binding: binds
Substance: B-MYB (from UniProt P48972 1-704)

Source: publication PMC3647048
